Earlier results, collected in patent US8278437B2, “Hydroxypropyl-sulfobutyl-beta-cyclodextrin, the preparation method, the analytical method, and the pharmacutical application thereof” (priority 2005, dated 2012).
Like-named read-outs stand apart in the source and are kept apart here.

Test system: mouse
Conditions: cited from earlier work

CC(=O)N(C)C [DMA]
LD50 (Oral): 4620 mg/kg
LD50 (intraperitoneal injection): 3200 mg/kg
LD50 (intravenous injection): 3020 mg/kg
